Data on one compound can be found in patent US20190367426A1, “LIQUID UREASE INHIBITOR FORMULATIONS” (YARA INTERNATIONAL ASA, priority 2017, published 2019).

This series in a line: Odour of nBTPT sources as such and applied onto urea granules. The following applies: qualitative.

For the compound `CCCCNP(N)(N)=S` [nBTPT powder, N-(n-butyl)thiophosphoric triamide], for the setting “applied onto urea granules in a concentration of 500 ppm”, the Smell from granules entry is “none”. The “Smell of the nBTPT formulation” value (nBTPT source as such) is on record as “strong”.
